Measurements taken from the odorant receptor screen of Mainland et al. (2015).
Several values for one entry are separate records, joined by “and”; a condition that tells them apart may be missing. Identical values can stand only once. Some of the results follow. Single wells; the ratio to wells without odorant was worked out here, and repeats agree poorly.

Legend:
Assay in all cases: odorant receptor activation (CRE luciferase / Renilla) (fold of no-odor wells); higher = more activation
Details in all cases: 100 µM
[1] = system: OR51A4 G45C/L227P/R267G clone 1166
OR51D1 clone 1206 = system: OR51D1 clone 1206
OR51E1 S11N clone 1532 = system: OR51E1 S11N clone 1532
OR51E1 clone 1129 = system: OR51E1 clone 1129
OR51E2 clone 1205 = system: OR51E2 clone 1205
OR51A2 clone 1577 = system: OR51A2 clone 1577
OR51B2 clone 1551 = system: OR51B2 clone 1551
[2] = system: OR51B4 V36I/M147T clone 1552
OR51B5 clone 1553 = system: OR51B5 clone 1553
OR51B6 clone 1554 = system: OR51B6 clone 1554

Row | Structure (SMILES) | odorant receptor activation [1] | odorant receptor activation (OR51D1 clone 1206) | odorant receptor activation (OR51E1 S11N clone 1532) | odorant receptor activation (OR51E1 clone 1129) | odorant receptor activation (OR51E2 clone 1205) | odorant receptor activation (OR51A2 clone 1577) | odorant receptor activation (OR51B2 clone 1551) | odorant receptor activation [2] | odorant receptor activation (OR51B5 clone 1553) | odorant receptor activation (OR51B6 clone 1554)
1 | CC12C=CCC1C1CCC3=CC(=O)CCC3(C)C1CC2 (stereo not given) [androstadienone] | 0.9 | 0.694 | 0.718 and 1.37 | 0.9 | 1.17 |  |  |  |  | 
2 | CC12CCC(C1)C(C)(C)C2=O (stereo not given) [fenchone] | 0.939 | 0.857 | 1.14 | 1.07 | 1.02 | 0.693 | 0.802 | 0.878 | 0.891 | 0.7
3 | CC(=O)c1ccccc1 [acetophenone] | 0.789 | 1.13 | 1.13 and 0.807 | 1.27 | 1.02 |  |  |  |  | 
4 | CCCCCCCCCC=O [decyl aldehyde] | 1.18 | 1.25 | 1.33 | 1.31 | 1.11 | 0.941 | 0.976 | 0.958 | 1.06 | 1.15
5 | O=C1CCCCC1 [Cyclohexanone] | 0.597 | 0.878 | 0.842 and 1.04 | 0.886 | 0.847 |  |  |  |  | 
6 | C=CC(C)(O)CCC=C(C)C (stereo not given) [linalool] | 1.02 | 0.947 | 0.912 | 1.23 | 1.18 | 0.676 | 0.784 | 0.836 | 0.892 | 0.698
7 | CCCCCCCC=O [octyl aldehyde] | 0.989 | 1.22 | 0.95 | 1.43 | 1.2 | 0.764 | 1.04 | 0.729 | 0.953 | 0.683
8 | CC(C)CCC(=O)O [4-methylvaleric acid] | 1.05 | 1.47 | 1.28 | 1.42 | 0.862 | 0.711 | 0.669 | 0.771 | 0.763 | 1.2
9 | CC(C)=CCCC(C)=CC=O [citral] | 1.19 | 1.03 | 1.04 | 1.45 | 1.21 | 1.84 | 1.49 | 1 | 0.965 | 1.54
10 | CCCCCC(=O)O [caproic acid] | 1.05 | 1.04 | 1.69 | 1.19 | 1.06 | 0.766 | 1.07 | 1.69 | 0.666 | 0.89
